Experimental data: PMC4564177
No constants are given. Whether binding was seen depends on the method and setting. In cells and extracts the contact can be indirect. A result given as binding can be weak or reduced; the word gives no strength.

Amino acid sequences for entries named in this document (tags omitted). A change or cut given only in a name is not applied to a line headed by its entry. Residues count along the entry.
UniProt O88382: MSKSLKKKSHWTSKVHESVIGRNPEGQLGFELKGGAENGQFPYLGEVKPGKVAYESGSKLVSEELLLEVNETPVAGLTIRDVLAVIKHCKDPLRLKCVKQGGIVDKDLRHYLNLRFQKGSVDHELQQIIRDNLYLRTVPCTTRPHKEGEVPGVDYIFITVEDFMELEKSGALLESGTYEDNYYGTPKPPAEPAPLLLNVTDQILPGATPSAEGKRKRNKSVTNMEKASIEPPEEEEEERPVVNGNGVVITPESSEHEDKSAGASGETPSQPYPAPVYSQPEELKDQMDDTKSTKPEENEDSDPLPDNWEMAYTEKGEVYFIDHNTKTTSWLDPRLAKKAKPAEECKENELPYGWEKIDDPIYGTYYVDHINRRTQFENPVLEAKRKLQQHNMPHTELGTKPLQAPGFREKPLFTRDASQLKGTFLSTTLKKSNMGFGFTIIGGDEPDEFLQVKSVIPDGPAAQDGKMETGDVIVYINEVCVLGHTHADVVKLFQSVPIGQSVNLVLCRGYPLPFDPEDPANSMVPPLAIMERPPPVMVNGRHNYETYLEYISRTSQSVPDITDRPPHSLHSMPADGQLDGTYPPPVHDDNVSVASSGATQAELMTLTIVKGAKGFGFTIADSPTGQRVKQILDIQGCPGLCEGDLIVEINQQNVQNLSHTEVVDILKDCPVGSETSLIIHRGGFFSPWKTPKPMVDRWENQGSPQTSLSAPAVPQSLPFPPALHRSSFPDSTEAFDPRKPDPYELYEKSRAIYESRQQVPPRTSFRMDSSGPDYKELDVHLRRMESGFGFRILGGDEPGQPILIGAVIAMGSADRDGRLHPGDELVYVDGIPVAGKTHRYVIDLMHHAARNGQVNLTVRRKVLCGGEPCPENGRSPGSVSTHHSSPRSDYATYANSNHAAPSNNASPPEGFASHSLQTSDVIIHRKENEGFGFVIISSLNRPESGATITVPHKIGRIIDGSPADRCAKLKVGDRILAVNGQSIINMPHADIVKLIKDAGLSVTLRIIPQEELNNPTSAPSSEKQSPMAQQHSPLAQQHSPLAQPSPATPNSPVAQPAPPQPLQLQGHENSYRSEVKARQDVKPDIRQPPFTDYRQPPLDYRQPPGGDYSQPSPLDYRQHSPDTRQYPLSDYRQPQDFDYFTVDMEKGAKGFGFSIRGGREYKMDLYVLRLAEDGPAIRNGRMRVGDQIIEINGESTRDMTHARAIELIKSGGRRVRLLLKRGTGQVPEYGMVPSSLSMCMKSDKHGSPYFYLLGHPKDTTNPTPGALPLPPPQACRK
UniProt P34998, residues 24-415: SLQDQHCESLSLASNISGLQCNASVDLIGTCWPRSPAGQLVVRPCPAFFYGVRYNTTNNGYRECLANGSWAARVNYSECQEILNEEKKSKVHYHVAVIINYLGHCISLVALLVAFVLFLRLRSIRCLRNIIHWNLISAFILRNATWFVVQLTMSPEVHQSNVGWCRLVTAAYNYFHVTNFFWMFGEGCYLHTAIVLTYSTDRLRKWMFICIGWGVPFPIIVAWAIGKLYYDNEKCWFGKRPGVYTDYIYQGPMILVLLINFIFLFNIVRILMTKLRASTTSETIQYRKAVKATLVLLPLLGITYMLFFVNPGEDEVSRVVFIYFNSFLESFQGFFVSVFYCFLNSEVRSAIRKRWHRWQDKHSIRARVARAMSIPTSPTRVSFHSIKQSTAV

Tests used:
myc-MAGI2 PDZ2-5 (rat) = myc-MAGI2 PDZ2-5 (rat) (UniProt O88382); experiment: co-IP; lysates of HEK293 cells transiently co-transfected; IP overnight at 4°C with anti-GFP, anti-myc, anti-HA or anti-flag and Protein G Dynabeads; washes with 500 mM NaCl, 0.1% SDS, 0.5% Triton X-100; immunoblot; for syntenin-1 under basal conditions and after CRH (100 nM) treatment
flag-CRHR1 (human) = flag-CRHR1 (human) (UniProt P34998); experiment: as above

Substance | binding (myc-MAGI2 PDZ2-5 (rat)) | binding (flag-CRHR1 (human))
flag-CRHR1 (from UniProt P34998-2 24-415) (receptor) | binds | –
myc-MAGI2 PDZ2-5 (from UniProt O88382) (domain or fragment) | – | binds
